Where a name gives a salt, the structure may show the parent alone. Read-outs that look alike come from different tables or passages of the source. Out of some 3,300 compounds screened, about 60 (2%) showed an effect of 50% or more. The list shows a part of the results.
System: HCoV-OC43
Parameters: species or system RD; HTS, protection from HCoV-OC43 induced cell death, luminescent cell viability (CellCounting-Lite 2.0), inhibition rate
Conditions: 24 h post infection, 1 h compound pre-incubation, 10 µM, inhibitor

## C=C1C(=O)O[C@@H]2/C=C(\C)CC/C=C(\C)CC[C@@H]12 [Costunolide]
  OC43 Inhibition rate: 13.7%

## C[C@]12CC[C@H]3[C@@H](CC=C4C[C@@H](O)CC[C@@]43C)[C@@H]1CC[C@@H]2C(=O)CO [21-Hydroxypregnenolone]
  OC43 Inhibition rate: -0.2%

## CC(=O)c1ccccc1N [2'-Aminoacetophenone]
  OC43 Inhibition rate: -0.3%

## CCCCCCCCCCCCC [Tridecane]
  OC43 Inhibition rate: -3.8%

## Oc1ccc2c(c1)OCO2 [Sesamol]
  OC43 Inhibition rate: -0.8%

## CO[C@H]1c2cc(C(C)C)c(O)c(O)c2[C@@]23CCCC(C)(C)[C@@H]2[C@@H]1OC3=O [7-Methoxyrosmanol]
  OC43 Inhibition rate: 0.5%

## OC1OC[C@@H](O[C@@H]2OC[C@@H](O[C@@H]3OC[C@@H](O[C@@H]4OC[C@@H](O)[C@H](O)[C@H]4O)[C@H](O)[C@H]3O)[C@H](O)[C@H]2O)[C@H](O)[C@H]1O (stereo partly drawn) [Xylotetraose]
  OC43 Inhibition rate: 27.7%

## c1ccc2c(Cc3c[nH]c4ccccc34)c[nH]c2c1 [3,3'-Diindolylmethane]
  OC43 Inhibition rate: -0.2%

## COc1c2ccoc2c(OCC=C(C)C)c2oc(=O)ccc12 [Phellopterin]
  OC43 Inhibition rate: 21.3%

## CC1(C)CC[C@]2(C(=O)O)CCC3=C([C@@H](CCl)C[C@@H]4[C@@]5(C)C[C@H](O)[C@H](O)[C@@](C)(C(=O)O)[C@@H]5CC[C@@]34C)[C@@H]2C1 [Tenuigenin]
  OC43 Inhibition rate: -0.4%

## CC(=O)c1ccc(O)cc1 [4-Hydroxyacetophenone]
  OC43 Inhibition rate: -0.2%

## COC(=O)c1cccnc1 [Methyl nicotinate]
  OC43 Inhibition rate: 3.2%

## CC(=O)C1=C(O)C=C2Oc3c(C(C)=O)c(O)c(C)c(O)c3[C@@]2(C)C1=O [(+)-Usnic acid]
  OC43 Inhibition rate: -1.4%

## O=C(CCc1ccc(O)cc1)c1c(O)cc(O)cc1O[C@@H]1O[C@H](CO)[C@@H](O)[C@H](O)[C@H]1O [Phlorizin]
  OC43 Inhibition rate: -0.2%

## C[C@]12CCC(=O)C=C1CC[C@@H]1[C@@H]2[C@@H](O)C[C@@]2(C)[C@H]1CC[C@]2(O)C(=O)CO [Hydrocortisone]
  OC43 Inhibition rate: -0.1%

## CC[C@@H](C)O [(R)-(-)-2-Butanol]
  OC43 Inhibition rate: 0.1%

## O=C(O)CC(O)C(=O)O (stereo not drawn) [Malic acid]
  OC43 Inhibition rate: 0.1%

## Nc1cc[nH]c(=O)n1 [Cytosine]
  OC43 Inhibition rate: -0.2%

## C[C@H](CCC(=O)O)[C@H]1CC[C@H]2[C@@H]3CC=C4C[C@@H](O)CC[C@]4(C)[C@H]3CC[C@]12C [3b-Hydroxy-5-cholenoic acid]
  OC43 Inhibition rate: 1.7%

## COc1cc(O)c2c(c1)oc(=O)c1c3cc(O)c(O)cc3oc21 [Wedelolactone]
  OC43 Inhibition rate: 2.9%

## C[C@@H]1C[C@H]2CC3=C(CCC(=O)N3)[C@@]3(C1)[C@@H]2CCCN3C [α-Obscurine]
  OC43 Inhibition rate: -0.2%

## Cn1cncc1C[C@H](NC(=O)CCN)C(=O)O [Anserine]
OC43 Inhibition rate, 24 h
  OC43 Inhibition rate: 5%

## O=Cc1c[nH]c2ccccc12 [Indole-3-carboxaldehyde]
  OC43 Inhibition rate: 2.9%

## CC1(C)[C@@H]2CC[C@@]1(C)C(=O)C2 [(+)-Camphor]
  OC43 Inhibition rate: -0.2%

## COc1ccc(-c2cc(=O)c3c(O)cc(O)c(-c4cc(-c5cc(=O)c6c(O)cc(O)cc6o5)ccc4OC)c3o2)cc1 [Isoginkgetin]
  OC43 Inhibition rate: 23.2%

## CCCCC(CC)COC(=O)c1ccccc1C(=O)O (stereo not drawn) [Phthalic acid mono-2-ethylhexyl ester]
  OC43 Inhibition rate: 3.2%

## C[C@]1(OC(=O)/C=C/c2ccccc2)C[C@@H](O)[C@]2(O)C=CO[C@@H](O[C@@H]3O[C@H](CO)[C@@H](O)[C@H](O)[C@H]3O)[C@@H]21 [Harpagoside]
  OC43 Inhibition rate: -0.7%

## COc1cc2cc(Oc3ccc4ccc(=O)oc4c3)c(=O)oc2cc1O [Daphnoretin]
  OC43 Inhibition rate: -0.1%

## COc1c2cc3c(c1OC)CCN(C)[C@@H]3Cc1ccc(cc1)Oc1cc3c(c(OC)c1OC)CCN(C)[C@@H]3Cc1ccc(cc1)O2 [Cycleanine]
  OC43 Inhibition rate: 7.5%

## COc1ccc(O)cc1OC [3,4-Dimethoxyphenol]
  OC43 Inhibition rate: 2.5%

## c1ccc2c(c1)cc1ccc3cccc4ccc2c1c34 [Benzo[a]pyrene]
  OC43 Inhibition rate: 14.9%

## COc1c2ccoc2c(OC)c2oc(=O)ccc12 [Isopimpinellin]
  OC43 Inhibition rate: 2.4%

## CC(C)NCC(O)COc1cccc2ccccc12 (stereo not drawn) [Propranolol (hydrochloride)]
OC43 Inhibition rate, 24 h
  OC43 Inhibition rate: 0.3%
